Screening data

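Recombinant human HSD17B10 (3-hydroxyacyl-CoA dehydrogenase type-2) enzyme, with activity tracked as NADH fluorescence build-up in a kinetic read. Each compound was run as a 15-point series from about 0.0007 to 57 µM. Fitted half-maximal potency (AC50) from the inhibition curve; a lower value means a more potent inhibitor. The record's title names HSD17B4; its protocol and target entry give this enzyme. Active means a well-fitted inhibition curve with a large enough effect; inconclusive means a weak, poorly fitted or top-concentration-only effect.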

Values are in µM. Only part of the assay is listed here, not a random draw. Potencies fitted to partial, single-point or poorly fitting curves are rough.

COc1ccc(CCn2c(-c3ccco3)nc3nc4ccccc4nc32)cc1 read Potency 12.59 µM (inconclusive; inhibitor, partial curve).
Cn1c(O)c(C=NC2C(=O)C3(C)CCC2C3(C)C)c(=O)n(C)c1=O (stereo not drawn) read Potency 25.12 µM (inconclusive; inhibitor, single point).
O=c1c(-c2ccccc2)nc2cnc(N3CCOCC3)nc2n1Cc1cccs1 read Potency 25.12 µM (active).
Nc1c(C(=O)NC2CCCC2)c2nc3ccccc3nc2n1CC1CCCO1 (stereo not drawn) read Potency 31.62 µM (active).
COc1ccc(-n2c(=O)c(-c3ccc(Cl)cc3)nc3cnc(N(C)C)nc32)cc1 read Potency 15.85 µM (active).
O=c1c(-c2cc(F)cc(F)c2)nc2cnc(N3CCNCC3)nc2n1-c1ccccc1 read Potency 31.62 µM (active).
CCCn1nc(NC(=O)CC(C)C)c2cc3ccccc3nc21 read Potency 31.62 µM (inconclusive; inhibitor, single point).
Oc1ccccc1/C=N/c1c(-c2ccco2)nc2ccccn12 read Potency 1.995 µM (inconclusive; inhibitor, partial curve).
C[C@]12C=CC(=O)C=C1CC[C@H]1[C@@H]3C[C@@H](O)[C@](O)(C(=O)CO)[C@@]3(C)C[C@H](O)[C@@]12F read Potency 25.12 µM (inconclusive; inhibitor, single point).
CCNc1ncc2nc(-c3cccc(C#N)c3)c(=O)n(CCC#N)c2n1 read Potency 1.259 µM (active).
COc1ccc2oc(=O)c(C(=O)NCC3CCCO3)cc2c1 (stereo not drawn) read Potency 31.62 µM (active).
COc1ccc(Oc2ncc3nc(-c4cccs4)c(=O)n(C)c3n2)cc1 read Potency 39.81 µM (inconclusive; inhibitor, single point).
CCCCn1c(C)c(C(=O)O)c2cc(OC)ccc21 read Potency 39.81 µM (inconclusive; inhibitor, single point).
COCCOC(=O)c1c(N)n(Cc2ccc(OC)cc2)c2nc3ccccc3nc12 read Potency 31.62 µM (active).
CCCCn1nc(NC(=O)c2cccs2)c2cc3cc(OC)ccc3nc21 read Potency 39.81 µM (inconclusive; inhibitor, single point).
CN(C)c1ncc2nc(-c3ccc(Cl)cc3)c(=O)n(-c3ccccc3)c2n1 read Potency 39.81 µM (inconclusive; inhibitor, single point).
COc1ccccc1C1C=C(c2ccc(C)cc2)Nc2nnnn21 (stereo not drawn) read Potency 39.81 µM (inconclusive; inhibitor, single point).
COc1ccccc1CCn1c(=O)c(-c2cccs2)nc2cncnc21 read Potency 31.62 µM (inconclusive; inhibitor, single point).
COc1ncc2nc(-c3cccs3)c(=O)n(-c3ccccc3)c2n1 read Potency 1.259 µM (active).
COc1cccc(Cn2c(=S)[nH]c3ccc(N4CCOCC4)cc3c2=O)c1 read Potency 31.62 µM (inconclusive; inhibitor, single point).
CCCCn1c(=NC(C)=O)c(C#N)cc2c(=O)n3cccc(C)c3nc21 read Potency 15.85 µM (active).
CN1CCN(c2ncc3nc(-c4cc(F)cc(F)c4)c(=O)n(C4CC4)c3n2)CC1 read Potency 25.12 µM (active).
C[C@]12C/C(=C/O)C(=O)C[C@@H]1CC[C@@H]1[C@@H]2CC[C@@]2(C)[C@H]1CC[C@]2(C)O read Potency 39.81 µM (inconclusive; inhibitor, single point).
CC1CCc2cc(F)ccc2N1C(=O)c1cc2nc(-c3ccco3)cc(C(F)(F)F)n2n1 (stereo not drawn) read Potency 25.12 µM (active).
CCN(CC)c1nc2ccccc2nc1C(C#N)C(=O)NCCCOC (stereo not drawn) read Potency 31.62 µM (inconclusive; inhibitor, single point).
Nc1nc(N)c2nc(-c3ccccc3)c(N)nc2n1 read Potency 1.259 µM (active).
CC1(C)CC(=O)C2=C(C1)OC(N)=C(C#N)C21CCN(Cc2ccccc2)CC1 read Potency 31.62 µM (inconclusive; inhibitor, single point).
CCC(=Nc1ccc(N)cc1)C1=C(O)C(C(=O)OC)C(C)(C)CC1=O (stereo not drawn) read Potency 15.85 µM (inconclusive; inhibitor, partial curve).
CC(=O)Nc1nn(C)c2nc3cc(C)ccc3cc12 read Potency 39.81 µM (inconclusive; inhibitor, single point).
COn1c(C)c(C(C)=O)c2c3nonc3ccc21 read Potency 39.81 µM (inconclusive; inhibitor, single point).
CS(=O)c1ccc(-c2nc(-c3ccc(F)cc3)c(-c3ccncc3)[nH]2)cc1 (stereo not drawn) read Potency 19.95 µM (active).
N#Cc1cccc(-c2nc3cnc(Oc4cccc(Cl)c4)nc3n(C3CC3)c2=O)c1 read Potency 39.81 µM (inconclusive; inhibitor, single point).

Data taken from PubChem BioAssay AID893, deposited by NCATS (2007).